Values of other authors, collected in patent US5886000A, “Anti-HIV agent” (Nissui Pharmaceutical Co., Ltd,, priority 1994, dated 1999).
For at least one compound, name, drawing or mass did not settle the structure.

System: AIDS
Conditions: AIDS patients; cited from earlier work

**Q.** For `Cc1cn([C@H]2C[C@H](N=[N+]=[N-])[C@@H](CO)O2)c(=O)[nH]c1=O` [AZT, azidothymidine], which life-prolonging effect is on record?
**A.** Its life-prolonging effect is “life-prolonging effect to a significant extent”.
